# Test results published in patent US5208320A, “Polypeptide having c-AMP-producing activity” (Takeda Chemical Industries, Ltd., priority 1990, dated 1993).
# Not every detail of the peptide structures is certain; ends, links or a residue may be inferred.
# Legend:
# astroglia cells = conditions: background art; in turn increases the survival time of nerve cells; cited from earlier work
# hypophysis cells = conditions: background art; cited from earlier work
# PC12h cells = assay: c-AMP-producing activity: c-AMP secreted by PC12h cells, radioimmunoassay kit; assay type: cell-based, rat; conditions: sample added, 37° C. for 2 hours, c-AMP in culture solution, FIG. 1
# Method: In the present invention, c-AMP producing activity was assayed by determining the amount of c-AMP secreted out of cells with a radioimmunoassay kit for measuring c-AMP, using subcultured cell PC12h of rat adrenal medulla origin.
# Established cells derived from adrenal medullas, PC12h, were cultivated in Dulbecco's modified Eagle's medium containing 10% semi-fetal calf serum at 37° C. A 48-well collagen-treated plate was inoculated with 5×10^4 cells per well, and cultivation was conducted for 7 to 10 days. Then, the culture medium was exchanged for 500 μl of Hank's balanced salt solution, followed by standing at 37° C. for 30 minutes. A sample to be tested dissolved in the same solution was added thereto, and cultivation was conducted at 37° C. for 2 hours. Subsequently, the amount of c-AMP in this culture solution was assayed by using a kit for measuring c-AMP (Amersham Inc.).
# [1] = background art; cited from earlier work
smiles,measurement,setting,value
CC[C@H](C)[C@H](NC(=O)CNC(=O)[C@H](CC(=O)O)NC(=O)[C@H](CO)NC(=O)[C@@H](N)Cc1c[nH]cn1)C(=O)N[C@@H](Cc1ccccc1)C(=O)N[C@H](C(=O)N[C@@H](CC(=O)O)C(=O)N[C@@H](CO)C(=O)N[C@@H](Cc1ccc(O)cc1)C(=O)N[C@@H](CO)C(=O)N[C@@H](CCCNC(=N)N)C(=O)N[C@@H](Cc1ccc(O)cc1)C(=O)N[C@@H](CCCNC(=N)N)C(=O)N[C@@H](CCCCN)C(=O)N[C@@H](CCC(N)=O)C(=O)N[C@@H](CCSC)C(=O)N[C@@H](C)C(=O)N[C@H](C(=O)N[C@@H](CCCCN)C(=O)N[C@@H](CCCCN)C(=O)N[C@@H](Cc1ccc(O)cc1)C(=O)N[C@@H](CC(C)C)C(=O)N[C@@H](C)C(=O)N[C@@H](C)C(=O)N[C@H](C(=O)N[C@@H](CC(C)C)C(=O)NCC(=O)N[C@@H](CCCCN)C(=O)N[C@@H](CCCNC(=N)N)C(=O)N[C@@H](Cc1ccc(O)cc1)C(=O)N[C@@H](CCCCN)C(=O)N[C@@H](CCC(N)=O)C(=O)N[C@@H](CCCNC(=N)N)C(=O)N[C@H](C(=O)N[C@@H](CCCCN)C(=O)N[C@@H](CC(N)=O)C(=O)N[C@@H](CCCCN)C(N)=O)C(C)C)C(C)C)C(C)C)[C@@H](C)O [PACAP38],production of c-AMP of astroglia cells,astroglia cells,enhances
same,production of intracellular c-AMP in hypophysis cells,hypophysis cells,enhances the production of intracellular c-AMP
CC[C@H](C)[C@H](NC(=O)CNC(=O)[C@H](CC(=O)O)NC(=O)[C@H](CO)NC(=O)[C@@H](N)Cc1c[nH]cn1)C(=O)N[C@@H](Cc1ccccc1)C(=O)N[C@H](C(=O)N[C@@H](CC(=O)O)C(=O)N[C@@H](CO)C(=O)N[C@@H](Cc1ccc(O)cc1)C(=O)N[C@@H](CO)C(=O)N[C@@H](CCCNC(=N)N)C(=O)N[C@@H](Cc1ccc(O)cc1)C(=O)N[C@@H](CCCNC(=N)N)C(=O)N[C@@H](CCCCN)C(=O)N[C@@H](CCC(N)=O)C(=O)N[C@@H](CCSC)C(=O)N[C@@H](C)C(=O)N[C@H](C(=O)N[C@@H](CCCCN)C(=O)O)C(C)C)[C@@H](C)O [PACAP20-OH],c-AMP-producing activity,PC12h cells,such activity can not be observed
CC[C@H](C)[C@H](NC(=O)CNC(=O)[C@H](CC(=O)O)NC(=O)[C@H](CO)NC(=O)[C@@H](N)Cc1c[nH]cn1)C(=O)N[C@@H](Cc1ccccc1)C(=O)N[C@H](C(=O)N[C@@H](CC(=O)O)C(=O)N[C@@H](CO)C(=O)N[C@@H](Cc1ccc(O)cc1)C(=O)N[C@@H](CO)C(=O)N[C@@H](CCCNC(=N)N)C(=O)N[C@@H](Cc1ccc(O)cc1)C(=O)N[C@@H](CCCNC(=N)N)C(=O)N[C@@H](CCCCN)C(=O)N[C@@H](CCC(N)=O)C(=O)N[C@@H](CCSC)C(=O)N[C@@H](C)C(=O)N[C@H](C(=O)N[C@@H](CCCCN)C(=O)N[C@@H](CCCCN)C(=O)N[C@@H](Cc1ccc(O)cc1)C(=O)N[C@@H](CC(C)C)C(=O)N[C@@H](C)C(=O)N[C@@H](C)C(=O)N[C@H](C(=O)N[C@@H](CC(C)C)C(N)=O)C(C)C)C(C)C)[C@@H](C)O [PACAP27],c-AMP-producing activity,[1],also observed
